# Assay results from PubChem BioAssay AID1671190 (National Center for Advancing Translational Sciences (NCATS), 2021).
# Protein sequences, listed by entry. Tags and fused reporters are not part of them. Lines headed by an entry give the natural chain unless they say otherwise; changes in a name come on top.
# UniProt P18054: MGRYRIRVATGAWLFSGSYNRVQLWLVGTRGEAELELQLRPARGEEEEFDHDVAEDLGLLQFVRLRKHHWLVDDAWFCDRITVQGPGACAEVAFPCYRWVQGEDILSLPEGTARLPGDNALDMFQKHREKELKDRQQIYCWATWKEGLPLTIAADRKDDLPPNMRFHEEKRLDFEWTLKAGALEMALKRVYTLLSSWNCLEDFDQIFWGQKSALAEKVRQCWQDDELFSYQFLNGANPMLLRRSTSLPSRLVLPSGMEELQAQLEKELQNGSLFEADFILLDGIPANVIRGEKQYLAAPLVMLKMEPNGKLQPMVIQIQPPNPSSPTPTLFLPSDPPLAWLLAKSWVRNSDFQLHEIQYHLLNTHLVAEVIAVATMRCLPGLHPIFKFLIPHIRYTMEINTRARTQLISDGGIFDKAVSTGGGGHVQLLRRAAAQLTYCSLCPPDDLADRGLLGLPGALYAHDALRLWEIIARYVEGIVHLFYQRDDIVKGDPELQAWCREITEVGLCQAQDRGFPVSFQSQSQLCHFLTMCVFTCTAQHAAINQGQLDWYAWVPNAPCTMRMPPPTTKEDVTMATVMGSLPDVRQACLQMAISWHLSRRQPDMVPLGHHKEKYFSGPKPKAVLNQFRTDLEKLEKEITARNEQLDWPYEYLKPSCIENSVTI
# Screen size: about 580,000 compounds; about 6,100 (1.1%) were called active. Inconclusive means that the source gave no clear call. Such entries were picked first, then a sample of the others. Calls follow the shape of the dose curve; as a rule, active = well fitted inhibition curve with a large enough effect; inconclusive = small, poorly fitted or top-dose-only effect, or another doubt; inactive = no such curve, though single readings can be large or run the other way. Potencies beside an inconclusive call are fits to weak or partial responses and may not hold up.
# Molecular target: Polyunsaturated fatty acid lipoxygenase ALOX12 (Homo sapiens) (UniProt P18054)
# Assay: Primary qHTS assay for inhibitors of human arachidonate 12S-lipoxygenase (ALOX12): Round 2
# Conditions: purified 12hLO, xylenol orange hydroperoxide absorbance; activity change, negative = inhibition: at 108 µM (top of the series) unless noted
# Method in brief: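 Purified human 12hLO at 150 nM in 25 mM Hepes, 0.01% Triton X-100, pH 7.0, preincubated 15 min at room temperature with compound. Reaction started with 40 uM arachidonic acid, 30 min at room temperature. Hydroperoxide measured by Fe-xylenol orange, 573/405 nm absorbance ratio.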
# % is scaled to controls: 0 for no effect and ±100 for the full control effect; potency is read from the fitted curve at half-maximal effect.
Structure (SMILES),Potency,"activity change, negative = inhibition"
CN(C)CCCn1c(SCc2c(Cl)cccc2Cl)nnc1-c1ccncc1,"inconclusive: 0.562 µM [inhibitor, full curve]",
CC(Sc1ncnc2ccccc12)C(=O)Nc1ccc(Cl)cc1Cl (stereo not given),"inconclusive: 3.98 µM [inhibitor, single point]",
CN(c1ccc(OCC(=O)N2CCN(c3ncccn3)CC2)cc1)S(=O)(=O)c1cccs1,,inactive: -1.2%
Cc1cc(C)nc(/N=C(\N)Nc2ccc(OCc3ccccc3)cc2)n1,"inconclusive: 126 µM [inhibitor, single point]",
Cc1scc(-c2n[nH]c(=S)n2C(C)c2ccccc2)c1C (stereo not given),"inconclusive: 56.2 µM [inhibitor, partial curve, poor fit]",
COc1cc(/C=N/Nc2ccc(Cl)c(C(=O)O)c2)ccc1OC(=O)c1cccs1,"inconclusive: 39.8 µM [inhibitor, partial curve, poor fit]",
Nc1cccc(/C=C/C(=O)c2ccccc2)c1,,inactive: 5.28%
COc1ccc(-c2cc(-c3cccnc3OC)cn3cncc23)cc1,"inconclusive: 141 µM [inhibitor, partial curve, poor fit]",
CC(C)(C)Sc1ccc2nn(CC(=O)NCc3ccc(Cl)cc3)c(=O)n2n1,"inconclusive: 79.4 µM [inhibitor, partial curve, poor fit]",
O=C(CCc1nc2ccccc2c(=O)[nH]1)Nc1ccc(F)c([N+](=O)[O-])c1,"inconclusive: 44.7 µM [inhibitor, partial curve, poor fit]",
CCOC(=O)C1=C(C)N=c2sc(=Cc3ccc(OCC(=O)O)cc3)c(=O)n2C1c1ccc(Cl)cc1 (stereo not given),"inconclusive: 44.7 µM [inhibitor, partial curve, poor fit]",
COc1ccc(NC(=O)N2CCN(S(=O)(=O)c3ccc4c(c3)NC(=O)C(C)O4)CC2)cc1 (stereo not given),,inconclusive: -51.3% [inhibitor]
Clc1ccc(-c2cnc3n[nH]c(-c4ccccc4)c3n2)cc1,"inconclusive: 44.7 µM [inhibitor, full curve]",
O=C(CN1CCN(c2ccccc2O)CC1)Nc1cc([N+](=O)[O-])ccc1Cl,"inconclusive: 39.8 µM [inhibitor, partial curve]",
C=CCNC(c1ccccc1)c1ccccc1,"inconclusive: 0.355 µM [inhibitor, full curve, poor fit]",
Cc1cc(C)c(NC(=O)COC(=O)c2cccc(O)c2)c(Cl)c1,,inactive: -27.1%
COc1cccc(C(=O)Nc2ccc(N3CCN(C(=O)c4ccco4)CC3)cc2)c1,"inconclusive: 89.1 µM [inhibitor, partial curve, poor fit]",
CN1CCN(c2ncc3ncc(=O)n(C4CC4)c3n2)CC1,"inconclusive: 31.6 µM [inhibitor, full curve, poor fit]",
O=C(C1CCCCC1)N1CCCC(n2cc(-c3nc(-c4ccccc4)no3)nn2)C1 (stereo not given),"inconclusive: 15.8 µM [inhibitor, full curve]",
CC(=NNC(=O)c1ccc(NS(=O)(=O)c2cccs2)cc1)c1ccc(OCC(N)=O)cc1,"inconclusive: 17.8 µM [inhibitor, single point]",

Structure (SMILES),Potency,"activity change, negative = inhibition"
CCOc1ccc(NC(=S)N2CCCN(Cc3cccc(Cl)c3)C2)cc1,"inconclusive: 112 µM [inhibitor, single point]",
Clc1c(CSc2nc3ccccc3o2)nc2ccccn12,"inconclusive: 100 µM [inhibitor, single point]",
COc1ccc(CCC(C)N2CCc3ccccc3C2)cc1 (stereo not given),"inconclusive: 50.1 µM [inhibitor, partial curve, poor fit]",
CC(=O)NC1(C)CCN(Cc2ccc(-c3ccccc3Oc3ccccc3)cc2)C1 (stereo not given),"inconclusive: 31.6 µM [inhibitor, full curve]",
COCCCNc1oc(/C=C/c2ccccc2)nc1C#N,,inactive: 0.326%
CCCS(=O)(=O)N1CCC(c2noc(-c3ccccc3)n2)C1 (stereo not given),,inactive: 5.97%
CCc1cccc(C)c1Nc1c(-c2ccc(N3CCOCC3)cc2)nc2ncccn12,"inconclusive: 50.1 µM [inhibitor, partial curve, poor fit]",
CC(C)N(CCO)C(=O)CCc1nnc(CCCc2ccccc2)o1,,inactive: -12.7%
CCOC(=O)c1sc2nc3c(SCC(=O)O)cc(C(=O)c4cc(F)ccc4O)cn3c(=O)c2c1C,"inconclusive: 50.1 µM [inhibitor, partial curve, poor fit]",
CCOC(=O)C(=NCCCN1CCOCC1)NNc1cccc(C(F)(F)F)c1,"inconclusive: 1.41 µM [inhibitor, full curve, poor fit]",
C=CCn1cc(-c2cccc(C(F)(F)F)c2)cc(C#N)c1=O,"inconclusive: 100 µM [inhibitor, single point]",
COc1ccc(NC(=O)c2c(-c3ccc(OC)cc3)oc3ccc(OC)cc23)cc1,"inconclusive: 89.1 µM [inhibitor, single point]",
O=C1N(Cc2cccnc2)C[C@@H]2C[C@@H](c3ccc(-c4ccccc4)cc3)N3CCC[C@@]123,,inactive: -0.267%
Fc1c(F)c(F)c(CN2CCCC3(CCNC3)C2)c(F)c1F (stereo not given),"inconclusive: 8.91 µM [inhibitor, full curve, poor fit]",
O=C(OCc1cc(=O)oc2cc(O)ccc12)c1ccc(F)cc1,"inconclusive: 35.5 µM [inhibitor, partial curve]",
CC(C)=CC(=O)Nc1ccc(OC2CCCC2)cc1,"inconclusive: 44.7 µM [inhibitor, single point]",
CC(=O)Nc1ccc(S(=O)(=O)NCCC(=O)OCc2nnc(-c3ccccc3)o2)cc1,"inconclusive: 89.1 µM [inhibitor, partial curve, poor fit]",
CC(Cc1ccco1)NC(=O)C1CCCO1 (stereo not given),"inconclusive: 50.1 µM [inhibitor, partial curve, poor fit]",
COc1ccccc1CN1CCNC(=O)C1CC(=O)NCCC1=CCCCC1 (stereo not given),"inconclusive: 39.8 µM [inhibitor, single point]",
COc1cc(NC(=O)Cn2c(N3CCc4ccccc4C3)nc(C)cc2=O)cc(OC)c1OC,"inconclusive: 79.4 µM [inhibitor, single point]",

# Record cards, as listed above:
# O=C(CCc1nc2ccccc2c(=O)[nH]1)Nc1ccc(F)c([N+](=O)[O-])c1 is entered as Potency: inconclusive: 44.7 µM [inhibitor, partial curve, poor fit]
# O=C(C1CCCCC1)N1CCCC(n2cc(-c3nc(-c4ccccc4)no3)nn2)C1 (stereo not given) is entered as Potency: inconclusive: 15.8 µM [inhibitor, full curve]
